In publication PMC12675664:
These are yes or no findings as the source states them, for the method shown. Binding seen in cells or lysates may run through a third protein. These calls come from enrichment with a bait or labelling near it, and not all partners need be listed. Where a sequence is shown, tags or fusion partners need not be part of it.

Biological target: T1, cell division cycle 6 (CDC6) tagged with HA (human) (UniProt Q99741)
T1 sequence: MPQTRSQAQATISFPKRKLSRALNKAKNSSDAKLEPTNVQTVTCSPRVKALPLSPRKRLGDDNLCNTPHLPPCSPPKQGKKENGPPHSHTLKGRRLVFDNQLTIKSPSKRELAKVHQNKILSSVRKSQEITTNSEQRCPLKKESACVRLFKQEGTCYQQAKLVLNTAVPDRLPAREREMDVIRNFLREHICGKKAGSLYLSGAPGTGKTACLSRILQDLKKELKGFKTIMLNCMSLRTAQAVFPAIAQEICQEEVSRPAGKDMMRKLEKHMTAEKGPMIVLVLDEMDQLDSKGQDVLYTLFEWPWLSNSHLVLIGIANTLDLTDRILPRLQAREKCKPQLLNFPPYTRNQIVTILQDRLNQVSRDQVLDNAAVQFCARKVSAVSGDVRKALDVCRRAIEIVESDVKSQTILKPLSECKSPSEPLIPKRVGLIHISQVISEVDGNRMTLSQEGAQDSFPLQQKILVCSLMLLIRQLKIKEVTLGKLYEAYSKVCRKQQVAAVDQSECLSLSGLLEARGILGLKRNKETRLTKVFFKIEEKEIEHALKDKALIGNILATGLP
Test: affinity purification with mass spectrometry; HEK293T transfected with CDC6-HA for 48 h, lysed in western-IP lysis buffer; anti-HA magnetic beads overnight; SDS-PAGE, silver stain, differential band (about 40-55 kDa) cut out and analysed by LC-MS/MS

binding: binds
B1: tropomodulin-3 (Tmod3), endogenous in HEK293T (protein, UniProt Q9NYL9 1-352)
chain: MALPFRKDLEKYKDLDEDELLGNLSETELKQLETVLDDLDPENALLPAGFRQKNQTSKSTTGPFDREHLLSYLEKEALEHKDREDYVPYTGEKKGKIFIPKQKPVQTFTEEKVSLDPELEEALTSASDTELCDLAAILGMHNLITNTKFCNIMGSSNGVDQEHFSNVVKGEKILPVFDEPPNPTNVEESLKRTKENDAHLVEVNLNNIKNIPIPTLKDFAKALETNTHVKCFSLAATRSNDPVATAFAEMLKVNKTLKSLNVESNFITGVGILALIDALRDNETLAELKIDNQRQQLGTAVELEMAKMLEENTNILKFGYQFTQQGPRTRAANAITKNNDLVRKRRVEGDHQ
